Drawing on US20060078559A1 (EUROSCREEN S A, published 2006), this text covers binding for 1 molecule.

For the experiment, the target named is T1, human formyl peptide receptor-like 2 (FPRL2) (human) (UniProt P25089).
T1 sequence: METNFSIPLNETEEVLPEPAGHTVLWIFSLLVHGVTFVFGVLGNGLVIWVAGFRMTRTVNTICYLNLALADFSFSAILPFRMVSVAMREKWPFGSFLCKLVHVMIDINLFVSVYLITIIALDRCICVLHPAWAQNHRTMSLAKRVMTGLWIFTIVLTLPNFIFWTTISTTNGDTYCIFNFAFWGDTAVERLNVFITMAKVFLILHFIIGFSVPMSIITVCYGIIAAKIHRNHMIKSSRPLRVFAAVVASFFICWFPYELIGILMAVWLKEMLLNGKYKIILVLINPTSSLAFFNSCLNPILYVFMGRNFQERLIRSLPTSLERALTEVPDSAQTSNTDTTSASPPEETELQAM
Briefly: competition binding on FPRL2-expressing CHO-K1 cells, tracer F2L-[125I]Tyr.

No constants are given. Whether binding was seen depends on the method and setting.

B1: SHAAG peptide derived from CCL23 N-terminus (peptide)
peptide: MLWRRKIGPQMTLSHAAG
notes: also called CCL23-derived SHAAG peptide
For B1, the binding entry was “no binding (tested: 3 µM)”.
